Source: paper doi:10.1101/2021.03.03.433744

Assays:
[1] = biological target: T1, GST-OsCEBiP (rice (Nipponbare)) (UniProt Q8H8C7); assay: pull-down
T1 sequence: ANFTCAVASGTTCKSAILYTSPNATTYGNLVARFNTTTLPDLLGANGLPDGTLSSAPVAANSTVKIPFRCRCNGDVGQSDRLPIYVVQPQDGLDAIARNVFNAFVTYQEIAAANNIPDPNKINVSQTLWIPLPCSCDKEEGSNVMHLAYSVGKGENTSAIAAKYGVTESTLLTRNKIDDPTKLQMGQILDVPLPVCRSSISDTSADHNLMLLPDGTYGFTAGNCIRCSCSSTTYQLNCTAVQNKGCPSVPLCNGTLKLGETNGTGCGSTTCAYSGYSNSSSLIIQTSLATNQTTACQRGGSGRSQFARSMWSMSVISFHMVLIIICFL

[2] = biological target: T2, GST-OsCERK1 (rice (Nipponbare)); assay: pull-down
T2 sequence: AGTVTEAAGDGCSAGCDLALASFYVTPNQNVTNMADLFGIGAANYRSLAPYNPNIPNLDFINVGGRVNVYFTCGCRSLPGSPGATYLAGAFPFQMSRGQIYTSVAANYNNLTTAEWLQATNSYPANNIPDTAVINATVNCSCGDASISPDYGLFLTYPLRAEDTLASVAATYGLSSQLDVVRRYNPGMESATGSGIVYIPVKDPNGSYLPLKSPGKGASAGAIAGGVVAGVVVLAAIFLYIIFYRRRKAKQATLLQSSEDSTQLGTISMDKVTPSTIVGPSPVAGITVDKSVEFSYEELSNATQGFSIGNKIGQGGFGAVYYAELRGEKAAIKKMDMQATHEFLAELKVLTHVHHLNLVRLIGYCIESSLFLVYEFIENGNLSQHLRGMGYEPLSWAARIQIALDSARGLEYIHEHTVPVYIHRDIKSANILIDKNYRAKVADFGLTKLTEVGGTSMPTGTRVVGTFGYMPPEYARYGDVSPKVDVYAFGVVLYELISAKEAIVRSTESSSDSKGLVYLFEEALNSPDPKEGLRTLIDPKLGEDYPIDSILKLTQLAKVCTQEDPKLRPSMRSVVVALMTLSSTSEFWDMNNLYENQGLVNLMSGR

[3] = biological target: T3, OsCEBiP-3×FLAG (rice (Nipponbare)) (UniProt Q8H8C7); assay: co-IP
T3 sequence: T1 sequence

[4] = biological target: T4, OsCERK1-3×FLAG (rice (Nipponbare)); assay: co-IP
T4 sequence: T2 sequence

binding [1]	binding [2]	binding [3]	binding [4]	Substance
binds	binds	–	–	MBP-UvChi1 (Ustilaginoidea virens) (enzyme)
binds	binds	–	–	MBP-UvChi1^mcb (mutated at chitin binding sites) (Ustilaginoidea virens) (enzyme)
–	–	binds	binds	UvChi1 (35S-UvChi1, expressed in Nicotiana benthamiana) (Ustilaginoidea virens) (enzyme)

These are yes or no findings as the source states them, for the method shown. Binding can be weak; no strength is given. Tags and fused reporters may be left off the sequences shown. For part of these data: Binding seen in cells or lysates may run through a third protein.
